This data set can be described thus: self-splicing fitness, log relative to wild type (ln ratio); higher = more splicing; Tetrahymena group I intron in knt gene, E. coli kanamycin selection, DiMSum; sequences stand for … in CUCUCU…GGAGGGAAAAGUUAUCAGGCAUGCACCUGGUAGCUAGUCUUUAAACCAAUAGAUUGCAUCGGUUUAAAAGGCAAGACCGUCAAAUUGCGGGAAAGGGGUCAACAGCCGUUCAGUACCAAGUCUCAGGGGAAACUUUGAGAUGGCCUUGCAAAGGGUAUGGUAAUAAGCUGACGGACAUGGUCCUAACCACGCAGCCAAGUCCUAAGUCAACAGAUCUUCUGUUGAUAUGGAUGCAGUUCACAGACUAAAUGUCGGUCGGGGAAGAUGUAUUCUUCUCAUAAGAUAUAGUCGGACCUCUCCUUAAUGGGAGCUAGCGGAUGAAGUGAUGCAACACUGGAGCCGCUGGGAACUAAUUUGUAUGCGAAAGUAUAUUGAUUAGUUUUGGAGUACUCGUGGUCG
In short, it runs like this: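 Fitness was computed with DiMSum as the error-weighted combination of replicate fold changes, kanamycin versus none, each normalised to wild type. The library randomised all eight intron nucleotides of the P1ex region, with the intron placed in the knt kanamycin-resistance gene on pET-22b(+) in E. coli BL21(DE3). Six replicate transformations were grown overnight at 37°C or 30°C on LB agar with or without 25 μg/mL kanamycin, plus 100 μg/mL carbenicillin, 50 μM IPTG and 0.2% rhamnose. Pooled colonies were amplicon-sequenced on an Illumina HiSeq 2500.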

± gives the uncertainty stated by the source. Many entries were measured with a wide error.

This note sets out measurements from the supplement of paper PMC7877785.

For UAGUAGCAAUAUUACGUCCC, the “self-splicing fitness (ln)” value reads like this: (30 °C) -3.19 ± 1.2; (37 °C) 0.000402 ± 1.2.
Turning to GCUAAGCAAUAUUACGGAGC, the “self-splicing fitness (ln)” value (30 °C) is -3.98 ± 0.51.
Same read-out and setting: the figure for UCUCAGCAAUAUUACGACGC is -2.44 ± 0.63.
On to UGACAGCAAUAUUACGGUAU, for which the “self-splicing fitness (ln)” value by setting is: (30 °C) -3.58 ± 0.2; (37 °C) -2.45 ± 0.21.
The corresponding values for AGUGAGCAAUAUUACGGAGG are -3.77 ± 0.28 and -2.67 ± 0.27.
UCGGAGCAAUAUUACGGAAA: the “self-splicing fitness (ln)” value (30 °C) was -3.81 ± 0.51.
As to CUAGAGCAAUAUUACGCCGC, the “self-splicing fitness (ln)” value (37 °C) is -2.66 ± 0.66.
As to UUCUAGCAAUAUUACGGCCC, the “self-splicing fitness (ln)” value (37 °C) was -1.78 ± 1.2.
For the sequence CAGUAGCAAUAUUACGUUGA, the “self-splicing fitness (ln)” value (30 °C) is -5.39 ± 0.51.
In the case of CACGAGCAAUAUUACGUUCA, the “self-splicing fitness (ln)” value runs as follows: (30 °C) -2.99 ± 0.18; (37 °C) -2.49 ± 0.24.
With UGGGAGCAAUAUUACGAUAC, the “self-splicing fitness (ln)” value (37 °C) was 0.526 ± 0.82.
Same read-out and setting: next, UCAGAGCAAUAUUACGGUCC: -2.51 ± 0.76.
Turning to UCCGAGCAAUAUUACGGCAU, the “self-splicing fitness (ln)” value runs as follows: (30 °C) -2.13 ± 0.13; (37 °C) -1.62 ± 0.097.
As to GCGAAGCAAUAUUACGGACC, the “self-splicing fitness (ln)” value was -1.32 ± 0.73 (30 °C) and -1.8 ± 0.55 (37 °C).
With CUUAAGCAAUAUUACGUACA, under “30 °C”, the “self-splicing fitness (ln)” value was -4.16 ± 0.52.
Turning to GAGCAGCAAUAUUACGAGGG, the “self-splicing fitness (ln)” value (30 °C) is -4.56 ± 0.59 and the “self-splicing fitness (ln)” value (37 °C) is -2.81 ± 0.38.
In the case of UCGGAGCAAUAUUACGAAAU, the “self-splicing fitness (ln)” value (37 °C) is -1.91 ± 0.68.
Regarding ACACAGCAAUAUUACGUUCU, the “self-splicing fitness (ln)” value by setting is: (30 °C) -0.986 ± 0.06; (37 °C) -0.532 ± 0.068.
The like results for GAGCAGCAAUAUUACGGCGA were, in that order, -1.21 ± 0.099 and -0.604 ± 0.11.
On to AUGCAGCAAUAUUACGCAGC, for which the “self-splicing fitness (ln)” value (30 °C) is -2.54 ± 0.59.
For UGAGAGCAAUAUUACGCGCU, under “37 °C”, the “self-splicing fitness (ln)” value is -1.2 ± 0.73.
Regarding GCGGAGCAAUAUUACGAAGU, the “self-splicing fitness (ln)” value is, setting by setting: (30 °C) -3.58 ± 0.43; (37 °C) -2.08 ± 0.36.
The corresponding values for GGGGAGCAAUAUUACGAGAU are -3.48 ± 0.63 and -1.65 ± 0.51.
As to UCAGAGCAAUAUUACGGCAA, where the note is “37 °C”, the “self-splicing fitness (ln)” value was -1.85 ± 0.81.
Consider UAAGAGCAAUAUUACGGCCG, for which the “self-splicing fitness (ln)” value reads like this: (30 °C) -1.79 ± 0.14; (37 °C) -0.743 ± 0.2.
The like results for CUAUAGCAAUAUUACGCCCC were, in that order, -1.55 ± 1.2 and -1.11 ± 0.9.
Take GGGAAGCAAUAUUACGCCCC: the “self-splicing fitness (ln)” value (37 °C) amounted to 0.608 ± 1.1.
Turning to UCGCAGCAAUAUUACGGCUA, the “self-splicing fitness (ln)” value reads like this: (30 °C) 0.198 ± 0.091; (37 °C) 0.317 ± 0.098.
The corresponding values for UGGGAGCAAUAUUACGCCAA are -2.56 ± 0.58 and -2.99 ± 0.75.
As to UUCGAGCAAUAUUACGAUUC, the “self-splicing fitness (ln)” value (37 °C) was -3.23 ± 0.52.
Take UCAAAGCAAUAUUACGAGGC: under “30 °C”, the “self-splicing fitness (ln)” value is -3.58 ± 0.52.
As to CGCGAGCAAUAUUACGAUAU, the “self-splicing fitness (ln)” value was -4.36 ± 0.6 (30 °C) and -1.51 ± 0.55 (37 °C).
With GACGAGCAAUAUUACGUAUC, the “self-splicing fitness (ln)” value (30 °C) was -3.2 ± 0.6.
Regarding GUGUAGCAAUAUUACGACCC, the “self-splicing fitness (ln)” value by setting is: (30 °C) -0.86 ± 1.4; (37 °C) -1.97 ± 0.58.
With UCCGAGCAAUAUUACGGAAA, the “self-splicing fitness (ln)” value (30 °C) was -2.87 ± 0.75.
On to CUGAAGCAAUAUUACGAGAA, for which the “self-splicing fitness (ln)” value (37 °C) is -2.45 ± 0.64.
Regarding GAUAAGCAAUAUUACGAAAU, the “self-splicing fitness (ln)” value is, setting by setting: (30 °C) -1.13 ± 0.13; (37 °C) -1.11 ± 0.15.
Turning to CUUUAGCAAUAUUACGAAUA, the “self-splicing fitness (ln)” value (37 °C) is -3.2 ± 0.73.
Take UGCGAGCAAUAUUACGUUAC: the “self-splicing fitness (ln)” value by setting is: (30 °C) -3.08 ± 0.64; (37 °C) -2.33 ± 0.54.
For UCGUAGCAAUAUUACGAGCU, the “self-splicing fitness (ln)” value (30 °C) is -0.828 ± 0.82 and the “self-splicing fitness (ln)” value (37 °C) is -0.44 ± 1.4.
In the case of UGGGAGCAAUAUUACGAGUC, where the note is “30 °C”, the “self-splicing fitness (ln)” value is -3.92 ± 0.61.
Still for that read-out and setting: next, CUUGAGCAAUAUUACGUUGC: -2.65 ± 0.74; CUGUAGCAAUAUUACGAAUU: -4.44 ± 0.72.
In the case of GAUCAGCAAUAUUACGAUUC, the “self-splicing fitness (ln)” value reads like this: (30 °C) -3.05 ± 0.38; (37 °C) -1.79 ± 0.27.
On to AGGGAGCAAUAUUACGAAUC, for which, where the note is “30 °C”, the “self-splicing fitness (ln)” value was -5.26 ± 1.
Take GGUGAGCAAUAUUACGCCGG: the “self-splicing fitness (ln)” value (37 °C) was -0.693 ± 0.82.
Same read-out and setting: next, AAAGAGCAAUAUUACGGAGC: -2.9 ± 0.53.
On the same count and under the same terms, next, GCGAAGCAAUAUUACGCUGU: -2.69 ± 0.63.
